From patent EP1345618B1, “CHLORZOXAZONE FOR THE TREATMENT OF PSORIASIS” (Switch Biotech Aktiengesellschaft, priority 2000, dated 2002)
For at least one compound, name, drawing or mass did not settle the structure.

Test system: HaCaT-Keratinozyten
Assay: Patch-clamp recording of the membrane potential (Vm) of HaCaT keratinocytes
Type: cell-based
Settings: Forskolin 10 µM pretreatment 3-10 min; n=5
Description: Um einen Ionenkanal zu identifizieren, der wesentlich bei der Signaltransduktion wundheilungsspezifischer Signale beteiligt ist, wurden HaCaT-Zellen elektrophysiologisch untersucht. Die Anzucht der HaCaT-Keratinozyten erfolgte in DEM mit 10% FRS (Gibco BRL), den Antibiotika (Penicillin/Streptomycin 100 U/ml) zugesetzt worden war. Die Ca^2+-Endkonzentration betrug 1,8 mM. Die Zellen wurden inkubiert bis eine konfluente Zellkultur entstanden war; anschließend wurde das Kulturmedium durch "Standard Bath Solution" (SBS; 130 mM NaCl, 3 mM KCl; 2 mM CaCl2; 2 mM MgCl2; 25 mM HEPES/NaHEPES; 10 mM D-Glukose; pH 7,4) ersetzt und die Schalen an einem inversen Mikroskop (Axiovert, Zeiss) untersucht. Die "Patch"-Pipetten wurden aus Borosilikatröhrchen an einer horizontalen Ausziehvorrichtung (DMZ, Zeitz) nach dem zweistufigen Ausziehverfahren hergestellt. Die Pipetten wurden anschließend mit einer Lösung, die 135 mM Kaliumglukonat, 10 mM KCl, 1,6 mM Na2HPO4, 0,73 mM CaCl2, 1,03 mM MgCl2, 1 mM EGTA, 14 mM HEPES/NaHEPES und […] Nystatin; pH 7,2 enthielt, gefüllt (Ca^2+-Aktivität in der Lösung= 10^-7 M). Der Widerstand dieser "Patch"-Pipetten betrug […] im Bad. Nachdem eine Versiegelung im GΩ-Bereich hergestellt wurde (typischerweise 1,5-2 GΩ) wurde der Verstärker auf Strom-Klemm Modus umgestellt. […]

C=C[C@@]1(C)CC(=O)[C@]2(O)[C@@]3(C)[C@@H](O)CCC(C)(C)[C@@H]3[C@H](O)[C@H](OC(C)=O)[C@@]2(C)O1 [Forskolin]
Einfluß auf Ruhepotential und ATP-Spannungsverlauf: beeinflußte weder das Ruhepotential noch den Spannungsverlauf, der nach ATP-Zugabe beobachtet wird
